Experimental data: the supplement of paper PMC4604168 (melanoma cell lines)
This is one part of the list. Many values rest on one well or one pass, so single values are uncertain.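 Cells were imaged in 1,536-well plates, and nuclei stained with an antibody against cleaved PARP were counted against all DNA-stained nuclei to give the apoptosis fraction. Screening doses were chosen to leave most cells alive, and resting and induced cleaved-PARP levels differ strongly between cell lines.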

Test system: WM451Lu
Assay: cleaved PARP positive nuclei fraction relative to DMSO control; melanoma cells; higher = more apoptosis
Conditions: library dose: low library concentration; 72 h

SMILES	cleaved PARP positive nuclei fraction
C[C@]1(c2nc3c(C(N)=O)cccc3[nH]2)CCCN1 [Veliparib] + COc1ccc(-c2ccc3c(N4CCOCC4)nc(N4C[C@@H](C)O[C@@H](C)C4)nc3n2)cc1CO [KU0063794] (first compound 1.4 µM, partner dose 0.02 µM)	385%
Cn1c(Nc2ccc(C(F)(F)F)cc2)nc2cc(Oc3ccnc(-c4ncc(C(F)(F)F)[nH]4)c3)ccc21 + O=C1NC(=O)/C(=C/c2ccc(-c3ccc(F)cc3O)o2)S1 [AS252424] (first compound 0.08 µM, partner dose 1 µM)	86.3%
Cc1cc(N2CCOCC2)cc2[nH]c(-c3c(NC[C@@H](O)c4cccc(Cl)c4)cc[nH]c3=O)nc12 + CCN(CC)CCCCNc1ncc2cc(-c3cc(OC)cc(OC)c3)c(NC(=O)NC(C)(C)C)nc2n1 [PD173074] (first compound 0.2 µM, partner dose 0.1 µM)	132%
Cc1nc(Nc2ncc(C(=O)Nc3c(C)cccc3Cl)s2)cc(N2CCN(CCO)CC2)n1 [dasatanib] + O=C(O)C(=O)Nc1sc2c(c1C(=O)O)CCNC2 [TCS401] (first compound 0.004 µM, partner dose 1.66667 µM)	99.3%
Cc1ccc(NC(=O)c2cccc(N(C)C)c2)cc1NC(=O)c1ccc(O)cc1 + N#Cc1c(O)c2c(-c3ccc(-c4ccccc4O)cc3)csc2[nH]c1=O [A769662] (first compound 2 µM, partner dose 2 µM)	316%
C#Cc1cccc(Nc2ncnc3cc(OCCOC)c(OCCOC)cc23)c1 [erlotinib] + N#Cc1c(O)c2c(-c3ccc(-c4ccccc4O)cc3)csc2[nH]c1=O [A769662] (first compound 0.8 µM, partner dose 2 µM)	37.3%
